Assay results taken from patent US20090208936.
For at least one entry, the source does not settle the construct or the ends of the probe. For part of these data: Negatives hold for the conditions tested.

Tests used:
[1] = tested on: alpha-thrombin (Homo sapiens); experiment: binding assay; details: CITED reported 15mer aptamer-thrombin Kd used in calculation; purified native protein; protein details: Haematologic Technologies Inc.; single-stranded DNA
[2] = tested on: anti-human thrombin monoclonal antibody (AHT); experiment: binding assay; details: FRET control without thrombin, no fluorescence change; purified native protein; protein details: Haematologic Technologies Inc.; label: 5'-6-FAM, 3'-Dabcyl; single-stranded DNA; variant of 15Ap
[3] = tested on: alpha-thrombin (Homo sapiens); experiment: inhibition of the protein; details: PEG linker of eight 18-atom spacer units joining 15Ap and 27Ap; fibrinogen clotting by light scattering; enzymatic rate as much as 10 times slower compared to 15Ap; pH 7.4, 150 mM NaCl, 5 mM KCl, 1 mM MgCl2, 1 mM CaCl2; purified native protein; protein details: Haematologic Technologies Inc.; single-stranded DNA

Question: With GGTTGGTGTGGTTGG [15Ap] as the sequence, how does the Kd [1] read?
Answer: 75 nM

Question: Does GGTTGGTGTGGTTGG [FQ-15Ap] bind [2]?
Answer: no binding

Question: How did the functional effect of the aptamer (fold slower than 15Ap) [3] turn out when “GGTTGGTGTGGTTGGACCCGTGGTAGGGTAGGATGGGGTGGT [DA-8S]” was run?
Answer: 10
